Reference: PubChem BioAssay AID504793 (Drosophila RNAi Screening Center, 2011)

- Aim: 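Genes required for cells to halt at G2/M after double-strand DNA breaks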 (primary screen)
- System: Drosophila S2R+ cells
- Reagent: long dsRNA against Drosophila genes, about 0.25 µg dsRNA per well
- Timing: 4 days of dsRNA, then 4 hours of drug before read-out
- Challenge: doxorubicin 0.5 µM for 4 hours to cause double-strand breaks, in cells also given a low, harmless dose of dsRNA against nbs to sensitise the assay
- Read-out: 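Per-well count of mitotic cells stained for phospho-histone H3 after doxorubicin exposure, used as mitotic index; counts are raw and not normalised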
- Scale: mitotic cells: higher = more cells in mitosis, weaker G2 arrest
- Rule for the call: 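Genes are called active only when high mitotic counts were reproduced with independent dsRNAs and mitosis was checked for delay without damage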
- Meaning of the calls: active = confirmed in follow-up tests; inactive = not confirmed
In all, the deposit lists about 23,000 reagents; below is a random part of those that have a named target and a result. Of all reagents, 62 (0.27%) got an active call. 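Calls come from follow-up tests whose scores are not deposited, so confirmed genes may have low counts here; counts are not normalised per plate.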 Raw values are not corrected between plates. Reagents against one gene are numbered here. No sequences are given here.

gene | reagent | mitotic cells, replicate 1 | call
CG31627 | 1 | 9 | inactive
Nup50 (Nucleoporin 50kD) | 1 | 2 | inactive
Nup50 (Nucleoporin 50kD) | 2 | 6 | inactive
CG2540 | 1 | 12 | inactive
nrv1 (nervana 1) | 1 | 4 | inactive
lin (lines) | 1 | 1 | inactive
lin (lines) | 2 | 12 | inactive
Cpr47Ee (Cuticular protein 47Ee) | 1 | 16 | inactive
CG4393 | 1 | 6 | inactive
Ced-12 | 1 | 2 | inactive
Ced-12 | 2 | 13 | inactive
MED14 (Mediator complex subunit 14) | 1 | 4 | inactive
MED14 (Mediator complex subunit 14) | 2 | 23 | inactive
Acp29AB (Accessory gland protein 29AB) | 1 | 4 | inactive
dpr12 (defective proboscis extension response 12) | 1 | 4 | inactive
dpr12 (defective proboscis extension response 12) | 2 | 4 | inactive
CG18094 | 1 | 12 | inactive
GC1 | 1 | 5 | inactive
GC1 | 2 | 8 | inactive
Cpr78Cb (Cuticular protein 78Cb) | 1 | 5 | inactive
Cpr78Cb (Cuticular protein 78Cb) | 2 | 3 | inactive
CG9547 | 1 | 4 | inactive
CG9547 | 2 | 2 | inactive
Vajk1 | 1 | 8 | inactive
Vajk1 | 2 | 3 | inactive
GlcT (Glucosylceramide synthase) | 1 | 8 | inactive
GlcT (Glucosylceramide synthase) | 2 | 4 | inactive
lectin-33A | 1 | 6 | inactive
lectin-33A | 2 | 4 | inactive
CG14818 | 1 | 4 | inactive
CG14818 | 2 | 3 | inactive
Ctps (CTP synthase) | 1 | 2 | inactive
Ctps (CTP synthase) | 2 | 7 | inactive
Ctps (CTP synthase) | 3 | 4 | inactive
Spag1 (Spag1 axonemal dynein assembly factor) | 1 | 18 | inactive
Su(var)3-3 (Suppressor of variegation 3-3) | 1 | 10 | inactive
Su(var)3-3 (Suppressor of variegation 3-3) | 2 | 3 | inactive
Sox21a | 1 | 3 | inactive
Sox21a | 2 | 1 | inactive
PPYR1 (Protein phosphatase Y regulator 1) | 1 | 6 | inactive
PPYR1 (Protein phosphatase Y regulator 1) | 2 | 3 | inactive
CG7054 | 1 | 10 | inactive
CG7054 | 2 | 4 | inactive
CG16787 | 1 | 5 | inactive
CG5011 | 1 | 15 | inactive
CG5011 | 2 | 4 | inactive
CG5011 | 3 | 6 | inactive
Bro | 1 | 7 | inactive
mtm (myotubularin) | 1 | 3 | inactive
CG18748 | 1 | 4 | inactive
Sur-8 | 1 | 11 | inactive
CG15549 | 1 | 19 | inactive
CG10748 | 1 | 4 | inactive
kune (kune-kune) | 1 | 5 | inactive
Ndc80 | 1 | 13 | inactive
Ndc80 | 2 | 15 | inactive
CG15293 | 1 | 5 | inactive
Ing5 (Inhibitor of growth family member 5) | 1 | 10 | inactive
Ing5 (Inhibitor of growth family member 5) | 2 | 11 | inactive
CG33307 | 1 | 3 | inactive
Rbp (RIM-binding protein) | 1 | 9 | inactive
CG5746 | 1 | 5 | inactive
CG5746 | 2 | 6 | inactive
Tbcb (Tubulin-binding cofactor B) | 1 | 10 | inactive
corolla | 1 | 3 | inactive
CG8569 | 1 | 8 | inactive
PH4alphaNE3 (prolyl-4-hydroxylase-alpha NE3) | 1 | 3 | inactive
PH4alphaNE3 (prolyl-4-hydroxylase-alpha NE3) | 2 | 9 | inactive
CG18081 | 1 | 4 | inactive
CG18081 | 2 | 9 | inactive
Vajk4 | 1 | 5 | inactive
Vajk4 | 2 | 4 | inactive
Vajk4 | 3 | 6 | inactive
Cpr67B (Cuticular protein 67B) | 1 | 9 | inactive
CCT8 (Chaperonin containing TCP1 subunit 8) | 1 | 191 | inactive
CCT8 (Chaperonin containing TCP1 subunit 8) | 2 | 110 | inactive

Quoted from the listing (5 entries):
gene | reagent | mitotic cells, replicate 1 | call
CG5011 | 2 | 4 | inactive
CG5011 | 3 | 6 | inactive
Bro | 1 | 7 | inactive
mtm (myotubularin) | 1 | 3 | inactive
CG18748 | 1 | 4 | inactive
